Patent US4229466A, “Sesquiterpene derivatives having anti-complementary activity” (Otsuka Pharmaceutical Co., Ltd., priority 1977, dated 1980)
Some entries share one result that the patent states for a list of compounds.

Test system: Nephrotoxin-Type Nephritis
Assay: Therapeutic effect on nephrotoxin-type nephritis (proteinuria)
Type: in vivo, male Wistar rats
Settings: same test as Table 3; result in words
Text: Rat nephrotoxin ("NT" for brevity) was obtained as described below. Rat kidney cortex was homogenized with an equal quantity of physiological saline. The homogenized mixture was mixed with Freund's complete adjuvant (a product of Difco Company) in a volume ratio of 1:1. Two milliliters of the resulting mixture was intramuscularly injected into a rabbit (body weight 3,100 g) to immunize the rabbit. A month and a half later, blood was taken from the heart of the rabbit and serum was obtained. The resulting serum was inactivated at 56° C. for 30 minutes, then salted out with a 40% saturated aqueous solution of ammonium sulfate, and fractionated. The γ-globulin (IgG) fraction was collected to obtain NT.
The evaluation was carried out using male Wistar rats with a body weight of 150 to 160 g with three replications for each test compound. The test compound was intraperitoneally administered once every 24 hours for seven days. One hour after the administration of the test compound on the third day, the NT was applied. The NT was intravenously injected in an amount of 1 ml at a tail vein of each rat. […]
The proteinuria level (total amount excreted into the urine over a 24 hour period) was measured using turbidometry employing bovine serum albumin as a control by means of sulfosalicylic acid.

## CC1CCC2C(C)(C)C(O)C(O)CC2(C)C12Cc1c(O)cc(C=C(C#N)C#N)c(C=C(C#N)C#N)c1O2 (centres unmarked) [(3), 6,7-Dihydroxy-2,5,5,8a-tetramethyl-1,2,3,4,4a,5,6,7,8,8a-decahydronaphthalene-1-spiro-2'-[6',7'-di-(2,2-dicyanovinyl)-4'-hydroxy-2',3'-dihydrobenzofuran]]
  inhibition of the primary reaction of nephrotoxin-type nephritis: found to inhibit the primary reaction

## CC(C)OC(=O)C(C#N)=Cc1cc(O)c2c(c1C=C(C#N)C(=O)OC(C)C)OC1(C2)C(C)CCC2C(C)(C)C(O)C(O)CC21C (centres unmarked) [(5), 6,7-Dihydroxy-2,5,5,8a-tetramethyl-1,2,3,4,4a,5,6,7,8,8a-decahydronaphthalene-1-spiro-2'-[6',7'-di-(2-cyano-2-isopropoxycarbonylvinyl)-4'-hydroxy-2',3'-dihydrobenzofuran]]
  inhibition of the primary reaction of nephrotoxin-type nephritis: found to inhibit the primary reaction
